Record: PubChem BioAssay AID1259289 (Sanger Institute, 2017)
In all, the deposit lists 794 reagents; shown is a random part of them. 16 of them (2%) were called active. 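Active marks cell loss from silencing alone; drug synergy shows only in the synergy scores, not the calls.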 Viability is capped at 1. Further read-outs or replicates are left out here. The record does not give: the amount of reagent, the time to read-out.

Assay: 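Find kinases whose loss adds to targeted drugs in killing bowel cancer cells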 (primary screen)
Cell system: human LS513 colorectal cancer cells
Knock-down reagent: siRNA pool against human genes
Treatment: anchor drug BYL719 at 1 µM, cetuximab at 5 µg/ml or trametinib at 10 nM, or DMSO vehicle alone; exposure time not given
Read-out: 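Survival versus non-targeting pool for each arm averaged over replicates, robust z-score in the arm with DMSO only, and synergy scores for BYL719, cetuximab or trametinib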
Scale: robust z-score, siRNA alone (DMSO): higher = more viable cells; strongly negative means essential; viability with DMSO vs control: higher = more viable cells; synergy score with BYL719: higher = stronger combined killing with BYL719; synergy score with cetuximab: higher = stronger combined killing with cetuximab
Call rule: 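a gene counts as active if its DMSO-only robust z-score falls under -3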
Calls: active = essential (knock-down alone); inactive = not essential

gene knocked down | robust z-score, siRNA alone (DMSO) | viability with DMSO vs control (fraction of control) | synergy score with BYL719 | synergy score with cetuximab | activity call
BMPR2 | -1.09 | 0.765 | -0.0155 | 0.0844 | inactive
DCLK1 | -0.386 | 0.866 | -0.249 | -0.0123 | inactive
STK16 | 0.561 | 1 | -0.134 | -0.0968 | inactive
SMAD2 | 0.115 | 0.937 | -0.00568 | 0.0879 | inactive
MAPK14 | 0.561 | 1 | 0.011 | 0.134 | inactive
AURKA | -1.93 | 0.646 | 0.0635 | 0.0834 | inactive
MAPK9 | 0.561 | 1 | -0.134 | -0.0968 | inactive
CHKB | 0.561 | 1 | -0.134 | -0.0968 | inactive
SRPK3 | 0.561 | 1 | -0.134 | -0.0968 | inactive
MAP3K20 | 0.561 | 1 | -0.134 | -0.0968 | inactive
CAMKV | 0.543 | 0.997 | 0.0568 | 0.127 | inactive
FLT1 | 0.561 | 1 | -0.0741 | -0.0968 | inactive
PRKAA2 | -0.653 | 0.828 | -0.0547 | 0.00476 | inactive
SRMS | -0.161 | 0.898 | 0.0514 | 0.0284 | inactive
ATP23 | 0.561 | 1 | -0.0232 | -0.0968 | inactive
PLK3 | 0.561 | 1 | 0.0839 | -0.0968 | inactive
ADK | 0.561 | 1 | -0.134 | -0.0968 | inactive
CRIM1 | 0.561 | 1 | -0.0663 | 0.142 | inactive
IGF2R | 0.561 | 1 | -0.0627 | 0.0168 | inactive
CDK5R2 | 0.561 | 1 | -0.0517 | 0.00308 | inactive
RAD21 | 0.561 | 1 | -0.0146 | -0.0968 | inactive
NEK3 | 0.217 | 0.951 | 0.0728 | 0.00293 | inactive
PRKX | 0.561 | 1 | -0.134 | -0.0968 | inactive
IRAK1 | 0.561 | 1 | 0.146 | 0.0982 | inactive
TRIB1 | 0.561 | 1 | 0.0774 | -0.0417 | inactive
PRKCSH | 0.561 | 1 | -0.0999 | -0.0968 | inactive
MYO3A | -0.408 | 0.862 | -0.00982 | 0.00151 | inactive
CASP8 | 0.561 | 1 | -0.0338 | -0.0968 | inactive
TWF1 | 0.561 | 1 | -0.134 | -0.0968 | inactive
DYRK1A | 0.561 | 1 | -0.134 | -0.0968 | inactive
NTRK3 | 0.561 | 1 | -0.0461 | -0.0968 | inactive
FN3KRP | -2.43 | 0.575 | -0.0691 | 0.0557 | inactive
NEK7 | 0.561 | 1 | -0.00444 | -0.0968 | inactive
CDK16 | 0.561 | 1 | 0.145 | 0.132 | inactive
AXIN2 | 0.561 | 1 | -0.128 | 0.0118 | inactive
PGK1 | 0.561 | 1 | -0.134 | -0.0968 | inactive
TEX14 | 0.561 | 1 | 0.0041 | -0.0968 | inactive
TPD52L3 | 0.561 | 1 | -0.134 | -0.0968 | inactive
PRKAR1B | -0.564 | 0.84 | 0.0762 | 0.14 | inactive
RPS6KA6 | 0.561 | 1 | 0.151 | 0.075 | inactive
LATS1 | -0.217 | 0.89 | 0.0201 | -0.0176 | inactive
GK | 0.561 | 1 | -0.0585 | 0.0333 | inactive
IP6K2 | 0.561 | 1 | -0.134 | -0.0968 | inactive
CSNK1G1 | 0.561 | 1 | -0.07 | -0.0634 | inactive
MED24 | 0.561 | 1 | -0.0565 | -0.0968 | inactive
ADCK2 | -2.5 | 0.566 | -0.152 | -0.043 | inactive
TK2 | 0.561 | 1 | -0.134 | -0.0968 | inactive
IRAK2 | 0.561 | 1 | -0.0867 | -0.0968 | inactive
TLK1 | -1.46 | 0.714 | 0.0304 | -0.0657 | inactive
MELK | 0.561 | 1 | 0.0283 | -0.0968 | inactive
STYK1 | 0.561 | 1 | -0.0652 | -0.0535 | inactive
RPS6KA3 | 0.561 | 1 | -0.134 | -0.0968 | inactive
TNK2 | 0.561 | 1 | -0.134 | -0.0968 | inactive
PAK6 | 0.561 | 1 | -0.0555 | -0.027 | inactive
BPTF | -0.718 | 0.818 | 0.0364 | 0.0344 | inactive
GRK4 | 0.136 | 0.94 | -0.0649 | 0.115 | inactive
RIPK2 | 0.427 | 0.981 | 0.217 | 0.121 | inactive
ITPKB | 0.561 | 1 | -0.134 | -0.0885 | inactive
INSR | 0.387 | 0.975 | -0.0321 | -0.0774 | inactive
GUCY2F | 0.561 | 1 | -0.134 | 0.0199 | inactive
BRD2 | 0.561 | 1 | -0.134 | -0.0968 | inactive
RIOK3 | 0.561 | 1 | -0.0138 | 0.049 | inactive
PDGFRA | 0.561 | 1 | -0.0813 | -0.0968 | inactive

Copied from the list.
Under “synergy score with cetuximab”, RPS6KA6 has 0.075
MED24, activity call → inactive
Result for GK in “viability with DMSO vs control (fraction of control)”: 1
ITPKB, robust z-score, siRNA alone (DMSO) = 0.561
TNK2, viability with DMSO vs control (fraction of control) = 1
For “robust z-score, siRNA alone (DMSO)”, ADCK2 is entered as -2.5
